Experimental data taken from PMC5119889.
No constants are given. Whether binding was seen depends on the method and setting. For part of these data: Binding seen in cells or lysates may run through a third protein. Some binding calls cover weakened binding; strength is not graded here. Sequences can lack the tags named with a protein.

Amino acid sequences for entries named in this document (tags omitted). Residues count along the entry.
UniProt Q9BVA1, residues 390-445: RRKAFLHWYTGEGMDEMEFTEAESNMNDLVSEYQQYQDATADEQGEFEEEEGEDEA
UniProt Q8BRK8: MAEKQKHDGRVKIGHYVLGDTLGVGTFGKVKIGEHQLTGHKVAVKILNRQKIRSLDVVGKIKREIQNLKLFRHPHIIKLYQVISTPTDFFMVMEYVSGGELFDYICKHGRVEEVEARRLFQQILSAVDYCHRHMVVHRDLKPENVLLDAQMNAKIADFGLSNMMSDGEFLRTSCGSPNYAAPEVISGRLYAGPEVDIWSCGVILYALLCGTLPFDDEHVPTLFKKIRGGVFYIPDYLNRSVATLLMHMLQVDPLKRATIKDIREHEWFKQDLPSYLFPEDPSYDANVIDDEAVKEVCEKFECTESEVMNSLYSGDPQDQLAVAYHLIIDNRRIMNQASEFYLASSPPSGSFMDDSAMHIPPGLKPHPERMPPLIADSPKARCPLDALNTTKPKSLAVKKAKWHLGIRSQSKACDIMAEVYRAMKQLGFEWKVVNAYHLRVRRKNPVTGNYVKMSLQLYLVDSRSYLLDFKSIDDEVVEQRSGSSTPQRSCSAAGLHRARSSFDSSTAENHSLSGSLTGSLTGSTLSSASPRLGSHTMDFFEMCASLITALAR

T1: GST-GIV-NT WT (aa 1-440) (human) (UniProt Q3V6T2)
T1 sequence: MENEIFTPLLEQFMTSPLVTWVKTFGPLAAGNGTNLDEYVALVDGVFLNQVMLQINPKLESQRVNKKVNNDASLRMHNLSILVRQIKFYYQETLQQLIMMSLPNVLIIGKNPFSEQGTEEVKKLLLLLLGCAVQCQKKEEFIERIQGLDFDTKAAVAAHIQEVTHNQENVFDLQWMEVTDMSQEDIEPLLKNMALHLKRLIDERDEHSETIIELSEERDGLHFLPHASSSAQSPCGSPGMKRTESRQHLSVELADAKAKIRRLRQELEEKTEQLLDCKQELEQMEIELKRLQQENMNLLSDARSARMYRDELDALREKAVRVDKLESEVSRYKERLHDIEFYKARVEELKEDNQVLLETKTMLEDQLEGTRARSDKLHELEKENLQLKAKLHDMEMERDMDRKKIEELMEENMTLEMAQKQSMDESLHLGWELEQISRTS


Assays:
[1] = biological target: T1, GST-GIV-NT WT (aa 1-440) (human); experiment: pull-down; purified GST-GIV-NT (WT, SA, SD) or GST alone (5 µg) immobilized on glutathione-Sepharose beads; Cos7 lysates (~250 µg; with or without myc-AMPKα2) added, 4 hr at 4°C, 50 mM Tris-HCl pH 7.4, 100 mM NaCl, 0.4% NP-40; immunoblot; only the target purified
[2] = biological target: GST tagged carboxyl terminus of human β2B-tubulin (aa 390-445) (human) (UniProt Q9BVA1); experiment: pull-down; GST-α- or β-Tubulin-CT immobilized on glutathione beads from bacterial lysates, washed, incubated at 4°C with purified His-GIV-NT phosphorylated (+) or not (-) in vitro with recombinant AMPK heterotrimers; immunoblot anti-His; both purified

Molecule	binding [1]	binding [2]
myc-tagged wild-type mouse AMPKα2 (from UniProt Q8BRK8 1-552) (enzyme)	binds	
His-GIV-NT WT (aa 1-440), not phosphorylated (domain or fragment, UniProt Q3V6T2 1-440) MENEIFTPLLEQFMTSPLVTWVKTFGPLAAGNGTNLDEYVALVDGVFLNQVMLQINPKLESQRVNKKVNNDASLRMHNLSILVRQIKFYYQETLQQLIMMSLPNVLIIGKNPFSEQGTEEVKKLLLLLLGCAVQCQKKEEFIERIQGLDFDTKAAVAAHIQEVTHNQENVFDLQWMEVTDMSQEDIEPLLKNMALHLKRLIDERDEHSETIIELSEERDGLHFLPHASSSAQSPCGSPGMKRTESRQHLSVELADAKAKIRRLRQELEEKTEQLLDCKQELEQMEIELKRLQQENMNLLSDARSARMYRDELDALREKAVRVDKLESEVSRYKERLHDIEFYKARVEELKEDNQVLLETKTMLEDQLEGTRARSDKLHELEKENLQLKAKLHDMEMERDMDRKKIEELMEENMTLEMAQKQSMDESLHLGWELEQISRTS		no binding
His-GIV-NT WT (aa 1-440), phosphorylated in vitro by AMPK at S245 (domain or fragment, UniProt Q3V6T2 1-440, phosphoserine at 245 (phosphorylated in vitro by recombinant AMPK heterotrimers)) MENEIFTPLLEQFMTSPLVTWVKTFGPLAAGNGTNLDEYVALVDGVFLNQVMLQINPKLESQRVNKKVNNDASLRMHNLSILVRQIKFYYQETLQQLIMMSLPNVLIIGKNPFSEQGTEEVKKLLLLLLGCAVQCQKKEEFIERIQGLDFDTKAAVAAHIQEVTHNQENVFDLQWMEVTDMSQEDIEPLLKNMALHLKRLIDERDEHSETIIELSEERDGLHFLPHASSSAQSPCGSPGMKRTESRQHLSVELADAKAKIRRLRQELEEKTEQLLDCKQELEQMEIELKRLQQENMNLLSDARSARMYRDELDALREKAVRVDKLESEVSRYKERLHDIEFYKARVEELKEDNQVLLETKTMLEDQLEGTRARSDKLHELEKENLQLKAKLHDMEMERDMDRKKIEELMEENMTLEMAQKQSMDESLHLGWELEQISRTS		no binding
